Data: PubChem BioAssay AID1259354 (Paczesny and Yang Labs, IUPUI and University of Michigan, 2018)
About 1,800 (2.3%) of roughly 78,000 compounds were called active. Inconclusive results, whose numbers are uncertain, are shown with a selection of clear calls. Rule as the data show it: active = inhibition above about 30%; inconclusive = mostly about 10% to 28%; inactive = weaker than that.

Chains of the proteins cited; added tags and fusions are not shown. Lines headed by an entry give the natural chain unless they say otherwise; changes in a name come on top.
UniProt Q01638: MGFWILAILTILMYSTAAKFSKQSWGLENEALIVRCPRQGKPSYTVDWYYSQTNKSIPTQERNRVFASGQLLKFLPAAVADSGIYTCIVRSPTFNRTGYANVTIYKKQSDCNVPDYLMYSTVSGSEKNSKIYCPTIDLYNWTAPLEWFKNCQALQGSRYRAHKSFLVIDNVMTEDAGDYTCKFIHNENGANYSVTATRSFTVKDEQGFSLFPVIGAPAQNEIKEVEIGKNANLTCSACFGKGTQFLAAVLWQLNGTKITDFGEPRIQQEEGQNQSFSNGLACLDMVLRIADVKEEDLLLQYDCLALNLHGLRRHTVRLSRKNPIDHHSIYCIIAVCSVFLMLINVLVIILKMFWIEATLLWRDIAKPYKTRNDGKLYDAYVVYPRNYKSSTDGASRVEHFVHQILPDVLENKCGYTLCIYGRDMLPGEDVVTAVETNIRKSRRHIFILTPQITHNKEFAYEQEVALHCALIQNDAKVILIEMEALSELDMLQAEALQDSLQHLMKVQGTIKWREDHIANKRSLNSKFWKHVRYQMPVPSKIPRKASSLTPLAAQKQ

What follows are compounds tested against Interleukin-1 receptor-like 1 (Homo sapiens) (UniProt Q01638) (assay: blocks human ST2 binding to IL-33, primary screen, biochemical, AlphaLISA (AID 1259354)). Conditions: AlphaLISA ST2-Fc/biotin-IL-33 interaction, 1 h; at 17 µM, hits give high values.

Row | SMILES | inhibition
1 | CC(C)CCCCCCCCCCCCC(=O)O | inconclusive: 15%
2 | O=C(Cn1cnc2c(cnn2-c2ccc(Cl)cc2)c1=O)Nc1ccc2c(c1)OCCO2 | inactive
3 | COc1cccc(C2Sc3ccccc3NC3=C2C(=O)c2ccccc23)c1 (stereo unspecified) | inconclusive: 20%
4 | C=C(C)[C@@H]1CC[C@]2(C(=O)O)CC[C@]3(C)[C@H](CCC4[C@@]5(C)CCC(=O)C(C)(C)C5C(O)C[C@]43C)C12 (stereo partly specified) | inconclusive: 18%
5 | C=CCNC1(C)CCS(=O)(=O)C1 (stereo unspecified) | inactive
6 | CNC(=O)c1nn(CCc2ccccc2)c2c1CC(N1CCCCCC1)CC2 (stereo unspecified) | inconclusive: 13%
7 | CC(C)c1cc(C(F)(F)F)nc(S[C@H]2CC(=O)[C@@H]3OC[C@H]2O3)n1 | inactive
8 | Cc1cccc(C)c1OC1CN(C(=O)CCn2cncn2)C1 | inconclusive: 21%
9 | CCC(C)N(C(=O)C1CCCO1)C(C)CC (stereo unspecified) | inactive
10 | O=C(NCc1cccs1)C1CCN(S(=O)(=O)c2cccnc2)CC1 | inconclusive: 10%
11 | Cc1ccc2nc(CN(C)c3cc(C4CCNCC4)nc(C)n3)[nH]c2c1 | inconclusive: 20%
12 | COc1ccc(C2NC(=O)c3c(sc4c3CCN(C)C4)N2)cc1OC (stereo unspecified) | inconclusive: 14%
13 | C=CC1(C)CC(O)C(C(=C)C(=O)OC)C(O)C1C(=C)CO (stereo unspecified) | inconclusive: 11%
14 | CC(C)NC(=O)c1ccc(C2SCC(=O)N2CCc2ccccc2)cc1 (stereo unspecified) | inactive
15 | CC1(C)O[C@H]2CC(=O)OC[C@]23[C@H]2CC[C@@]4(C)[C@H](c5ccoc5)OC(=O)[C@H]5O[C@]54[C@]2(C)C(=O)C[C@@H]13 | inconclusive: 14%
16 | Cc1cccc(N2CCCC2=Nc2cc(N(C)C)nc3ccccc23)c1 | inconclusive: 20%
17 | CCOC(=O)C1(CCCc2ccccc2)CCN(C(=O)C(=O)c2ccccc2)CC1 | inconclusive: 25%
18 | CC1CCCC(NC(=O)c2cc3cc4ccc(Cl)cc4nc3o2)C1C (stereo unspecified) | active: 30%
19 | CCOc1ccc(NC(=O)CC(C)c2ccccc2)cc1 (stereo unspecified) | inactive
20 | O=C(O)CCCC(=O)N[C@H]1CO[C@H]2[C@@H]1OC[C@@H]2Nc1nccc(-c2ccc3c(c2)OCO3)n1 | inconclusive: 13%
21 | O=S(=O)(N=S(N1CCCCC1)N1CCCCC1)c1ccccc1 | inactive
22 | COc1ccc(CNC(=O)C2CCCN2C(=O)c2ccc(-c3noc(C)n3)cc2)cc1 (stereo unspecified) | inconclusive: 12%
23 | CCc1ccc(CN2CCCC(c3ccnc(SCCN4CCCC4)n3)C2)o1 (stereo unspecified) | inconclusive: 10%

Fetched one by one from the list above:
Row | SMILES | inhibition
16 | Cc1cccc(N2CCCC2=Nc2cc(N(C)C)nc3ccccc23)c1 | inconclusive: 20%
6 | CNC(=O)c1nn(CCc2ccccc2)c2c1CC(N1CCCCCC1)CC2 (stereo unspecified) | inconclusive: 13%
18 | CC1CCCC(NC(=O)c2cc3cc4ccc(Cl)cc4nc3o2)C1C (stereo unspecified) | active: 30%
12 | COc1ccc(C2NC(=O)c3c(sc4c3CCN(C)C4)N2)cc1OC (stereo unspecified) | inconclusive: 14%

Going on with the list:

Row | SMILES | inhibition
24 | Cc1ccsc1CN(C)C(=O)c1nn(C)c2c1CCCC2 | inconclusive: 11%
25 | CCOC(=O)C1C(=O)C=C(c2ccc(OC)cc2)CC1c1ccc(N(C)C)cc1 (stereo unspecified) | inconclusive: 28%
26 | N=c1c2c(-c3ccccc3)c(-c3ccccc3)n(Cc3ccco3)c2ncn1CCCO | inconclusive: 16%
27 | CC(=O)Nc1ccc(S(=O)(=O)NC[C@@H]2C=C(C)[C@H](CC(=O)NCCN3CCOCC3)C[C@H]2C(C)C)cc1 | inconclusive: 16%
28 | Cc1cccn2c(CC(=O)NC3CCC(n4cnnc4)CC3)cnc12 (stereo unspecified) | inactive
29 | Cc1ccc(CN2CC34C=CC(O3)C(C(=O)NCc3ccc5c(c3)OCO5)C4C2=O)cc1 (stereo unspecified) | inconclusive: 11%
30 | COc1ccc(NC(=O)NCCc2nc3cccnc3n2C2CCCCC2)c(OC)c1 | inconclusive: 24%
31 | CCOC(=O)c1ccccc1NC(=O)NCCc1nc2cccnc2n1C1CCCCC1 | inconclusive: 24%
32 | Cc1c(Br)c([N+](=O)[O-])nn1CCCC(=O)NC1CCCCC1 | inconclusive: 10%
33 | CC1C/C(=C\CC(CC(N)=O)CC(=O)O)C(=O)C(C)C1 (stereo unspecified) | inactive
34 | O=C(c1ccco1)N1CCN(S(=O)(=O)NCc2ccccc2)CC1 | inactive
35 | Cc1cc(C)n(CC(=O)NCc2n[nH]c(=O)c3ccccc23)n1 | inconclusive: 18%
36 | CCCn1cnc2sc(C(=O)Oc3ccc(Cl)cc3)c(C)c2c1=O | inconclusive: 21%
37 | O=C(NCc1ccccn1)c1cc(-c2ccncc2)nc2ccccc12 | inconclusive: 14%
38 | O=C(CCS(=O)(=O)c1cccs1)Nc1ccc(C(=O)NC2CCCc3ccccc32)cc1 (stereo unspecified) | inactive
39 | O=C(C1CC1)N1CCc2cc(S(=O)(=O)NCCN3CCOCC3)ccc21 | inconclusive: 21%
40 | O=C(Cc1ccccc1)Nc1ccc(N2CCCC2)cc1 | active: 59%
41 | CC1=C(C(=O)Nc2cc(C)ccn2)C(c2ccc(N(C)C)cc2)C2=C(CCCC2=O)N1 (stereo unspecified) | inactive
42 | CCCCCCC/C=C\CCCCCCCCC(=O)O | inconclusive: 11%
43 | COc1ccccc1C1SCCN1S(=O)(=O)c1ccc([N+](=O)[O-])cc1 (stereo unspecified) | inconclusive: 28%
44 | Cc1cc(C)nc(N=C(N)Nc2ccc(N=Nc3ccccc3)cc2)n1 | inconclusive: 15%
45 | COc1ccccc1CCC(=O)N1CCCC(CCC(=O)Nc2ccc(F)cc2C)C1 (stereo unspecified) | inconclusive: 16%
46 | COc1ccccc1C1CC(=O)N2CN(c3ccccc3F)CSC2=C1C#N (stereo unspecified) | inactive
